This note sets out measurements from paper PMC4062820.

Chains of the proteins cited; added tags and fusions are not shown.
UniProt O75530: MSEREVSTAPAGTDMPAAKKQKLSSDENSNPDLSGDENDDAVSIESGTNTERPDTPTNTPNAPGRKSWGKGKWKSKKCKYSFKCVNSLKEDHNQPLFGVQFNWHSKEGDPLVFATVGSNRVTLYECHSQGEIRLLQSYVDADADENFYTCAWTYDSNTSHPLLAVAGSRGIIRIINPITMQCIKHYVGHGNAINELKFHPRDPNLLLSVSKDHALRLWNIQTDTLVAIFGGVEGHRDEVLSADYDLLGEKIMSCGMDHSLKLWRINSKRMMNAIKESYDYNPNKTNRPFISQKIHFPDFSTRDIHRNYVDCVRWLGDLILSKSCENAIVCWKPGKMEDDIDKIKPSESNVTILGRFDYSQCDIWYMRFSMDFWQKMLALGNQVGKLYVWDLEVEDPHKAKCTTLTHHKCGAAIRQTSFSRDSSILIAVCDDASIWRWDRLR
UniProt P51608: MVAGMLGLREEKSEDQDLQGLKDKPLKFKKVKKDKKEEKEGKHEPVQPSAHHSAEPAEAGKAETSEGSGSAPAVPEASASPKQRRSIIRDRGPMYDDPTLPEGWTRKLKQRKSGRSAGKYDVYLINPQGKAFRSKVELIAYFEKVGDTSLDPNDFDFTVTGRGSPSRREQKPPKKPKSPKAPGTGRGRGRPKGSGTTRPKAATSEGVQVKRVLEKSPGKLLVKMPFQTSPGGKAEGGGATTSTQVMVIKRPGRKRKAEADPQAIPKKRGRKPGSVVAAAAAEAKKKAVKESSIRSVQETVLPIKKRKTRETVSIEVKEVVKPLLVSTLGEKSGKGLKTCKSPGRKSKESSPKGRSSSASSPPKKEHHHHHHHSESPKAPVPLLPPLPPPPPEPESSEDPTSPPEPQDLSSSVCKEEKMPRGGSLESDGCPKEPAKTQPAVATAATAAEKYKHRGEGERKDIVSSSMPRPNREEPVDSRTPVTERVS
UniProt O75376: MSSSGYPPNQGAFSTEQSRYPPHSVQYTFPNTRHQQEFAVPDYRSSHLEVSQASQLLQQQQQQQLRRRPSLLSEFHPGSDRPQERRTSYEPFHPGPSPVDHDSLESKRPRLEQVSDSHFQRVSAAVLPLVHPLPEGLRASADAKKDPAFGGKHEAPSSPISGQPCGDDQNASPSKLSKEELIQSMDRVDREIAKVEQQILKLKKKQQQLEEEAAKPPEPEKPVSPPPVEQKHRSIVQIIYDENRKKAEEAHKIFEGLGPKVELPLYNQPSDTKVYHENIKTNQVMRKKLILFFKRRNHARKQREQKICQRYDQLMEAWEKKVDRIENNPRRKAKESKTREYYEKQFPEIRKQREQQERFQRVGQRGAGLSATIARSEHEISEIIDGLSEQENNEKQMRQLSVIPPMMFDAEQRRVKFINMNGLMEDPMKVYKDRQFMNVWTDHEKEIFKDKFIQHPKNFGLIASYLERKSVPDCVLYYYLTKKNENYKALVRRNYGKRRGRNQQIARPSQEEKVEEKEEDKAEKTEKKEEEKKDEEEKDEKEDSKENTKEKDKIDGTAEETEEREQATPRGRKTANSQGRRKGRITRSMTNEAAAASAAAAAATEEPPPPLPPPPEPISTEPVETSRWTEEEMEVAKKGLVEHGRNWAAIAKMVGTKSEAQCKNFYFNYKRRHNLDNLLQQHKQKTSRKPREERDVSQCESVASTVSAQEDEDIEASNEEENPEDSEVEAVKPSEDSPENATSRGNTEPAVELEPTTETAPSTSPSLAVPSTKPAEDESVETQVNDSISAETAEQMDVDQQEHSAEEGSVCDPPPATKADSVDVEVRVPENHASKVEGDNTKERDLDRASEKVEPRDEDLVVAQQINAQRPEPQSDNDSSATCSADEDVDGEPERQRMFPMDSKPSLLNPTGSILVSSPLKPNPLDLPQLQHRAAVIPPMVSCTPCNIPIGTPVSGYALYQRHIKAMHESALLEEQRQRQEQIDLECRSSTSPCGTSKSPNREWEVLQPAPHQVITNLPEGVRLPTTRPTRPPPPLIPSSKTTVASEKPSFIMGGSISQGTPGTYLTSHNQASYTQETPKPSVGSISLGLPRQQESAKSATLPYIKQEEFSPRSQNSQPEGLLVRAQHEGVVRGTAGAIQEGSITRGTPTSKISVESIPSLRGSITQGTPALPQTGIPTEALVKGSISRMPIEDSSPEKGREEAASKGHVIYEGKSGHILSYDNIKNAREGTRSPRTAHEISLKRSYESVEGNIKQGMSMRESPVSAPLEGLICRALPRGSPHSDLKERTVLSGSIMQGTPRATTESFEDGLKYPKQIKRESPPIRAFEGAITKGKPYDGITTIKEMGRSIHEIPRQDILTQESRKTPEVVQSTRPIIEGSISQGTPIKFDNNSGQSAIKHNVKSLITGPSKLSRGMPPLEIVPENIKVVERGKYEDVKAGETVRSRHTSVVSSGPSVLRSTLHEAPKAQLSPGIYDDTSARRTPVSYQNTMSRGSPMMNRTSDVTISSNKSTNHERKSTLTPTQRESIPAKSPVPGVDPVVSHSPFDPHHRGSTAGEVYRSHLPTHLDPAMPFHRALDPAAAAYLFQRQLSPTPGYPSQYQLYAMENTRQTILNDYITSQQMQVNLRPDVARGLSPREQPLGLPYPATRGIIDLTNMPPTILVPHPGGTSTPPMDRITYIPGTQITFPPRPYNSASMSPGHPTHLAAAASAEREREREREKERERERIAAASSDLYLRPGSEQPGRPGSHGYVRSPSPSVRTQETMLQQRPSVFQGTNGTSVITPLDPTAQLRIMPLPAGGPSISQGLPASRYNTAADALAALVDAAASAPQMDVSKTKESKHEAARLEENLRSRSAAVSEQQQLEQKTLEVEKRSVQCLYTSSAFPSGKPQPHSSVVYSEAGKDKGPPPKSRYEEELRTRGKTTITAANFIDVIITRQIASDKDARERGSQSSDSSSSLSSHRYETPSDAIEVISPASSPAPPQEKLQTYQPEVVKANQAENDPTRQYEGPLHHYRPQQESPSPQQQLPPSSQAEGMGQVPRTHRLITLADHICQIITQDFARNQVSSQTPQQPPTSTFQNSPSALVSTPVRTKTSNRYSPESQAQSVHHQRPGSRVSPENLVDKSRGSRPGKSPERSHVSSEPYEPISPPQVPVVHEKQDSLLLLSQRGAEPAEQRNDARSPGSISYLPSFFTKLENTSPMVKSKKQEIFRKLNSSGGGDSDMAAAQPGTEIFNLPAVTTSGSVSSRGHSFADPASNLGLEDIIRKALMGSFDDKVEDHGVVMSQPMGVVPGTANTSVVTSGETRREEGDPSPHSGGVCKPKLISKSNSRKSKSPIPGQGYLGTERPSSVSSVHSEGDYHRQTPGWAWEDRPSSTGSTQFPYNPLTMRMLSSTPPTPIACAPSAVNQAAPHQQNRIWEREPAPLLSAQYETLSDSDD
UniProt Q96KQ7: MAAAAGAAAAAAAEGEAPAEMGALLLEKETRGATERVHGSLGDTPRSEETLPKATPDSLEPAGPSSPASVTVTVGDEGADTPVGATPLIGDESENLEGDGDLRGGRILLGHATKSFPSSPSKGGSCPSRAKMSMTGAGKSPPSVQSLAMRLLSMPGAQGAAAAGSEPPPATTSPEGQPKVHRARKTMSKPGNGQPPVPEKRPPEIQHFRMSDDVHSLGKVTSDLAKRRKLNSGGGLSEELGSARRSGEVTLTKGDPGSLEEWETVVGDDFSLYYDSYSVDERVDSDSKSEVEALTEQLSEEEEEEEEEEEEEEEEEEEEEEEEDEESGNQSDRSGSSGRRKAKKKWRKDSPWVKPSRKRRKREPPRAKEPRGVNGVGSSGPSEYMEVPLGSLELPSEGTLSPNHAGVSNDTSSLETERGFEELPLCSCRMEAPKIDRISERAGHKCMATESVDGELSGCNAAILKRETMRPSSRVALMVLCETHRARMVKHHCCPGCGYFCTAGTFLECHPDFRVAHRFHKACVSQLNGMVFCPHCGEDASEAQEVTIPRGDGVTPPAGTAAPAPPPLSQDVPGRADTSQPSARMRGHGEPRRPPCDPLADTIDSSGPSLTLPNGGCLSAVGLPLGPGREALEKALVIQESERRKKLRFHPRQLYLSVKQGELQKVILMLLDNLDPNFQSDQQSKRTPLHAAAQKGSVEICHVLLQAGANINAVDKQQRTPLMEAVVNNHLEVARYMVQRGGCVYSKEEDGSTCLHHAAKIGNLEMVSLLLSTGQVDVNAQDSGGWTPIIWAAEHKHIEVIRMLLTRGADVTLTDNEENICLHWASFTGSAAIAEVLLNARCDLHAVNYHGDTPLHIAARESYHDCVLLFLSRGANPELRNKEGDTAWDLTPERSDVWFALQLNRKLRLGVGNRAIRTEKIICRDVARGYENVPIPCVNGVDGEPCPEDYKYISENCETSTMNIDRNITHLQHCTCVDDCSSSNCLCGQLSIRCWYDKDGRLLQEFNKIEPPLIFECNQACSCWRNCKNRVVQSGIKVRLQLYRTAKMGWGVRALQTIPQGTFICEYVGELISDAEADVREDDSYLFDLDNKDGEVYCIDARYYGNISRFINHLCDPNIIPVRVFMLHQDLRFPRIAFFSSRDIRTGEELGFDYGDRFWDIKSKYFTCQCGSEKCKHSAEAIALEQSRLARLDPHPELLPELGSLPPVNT
UniProt Q9UKL0: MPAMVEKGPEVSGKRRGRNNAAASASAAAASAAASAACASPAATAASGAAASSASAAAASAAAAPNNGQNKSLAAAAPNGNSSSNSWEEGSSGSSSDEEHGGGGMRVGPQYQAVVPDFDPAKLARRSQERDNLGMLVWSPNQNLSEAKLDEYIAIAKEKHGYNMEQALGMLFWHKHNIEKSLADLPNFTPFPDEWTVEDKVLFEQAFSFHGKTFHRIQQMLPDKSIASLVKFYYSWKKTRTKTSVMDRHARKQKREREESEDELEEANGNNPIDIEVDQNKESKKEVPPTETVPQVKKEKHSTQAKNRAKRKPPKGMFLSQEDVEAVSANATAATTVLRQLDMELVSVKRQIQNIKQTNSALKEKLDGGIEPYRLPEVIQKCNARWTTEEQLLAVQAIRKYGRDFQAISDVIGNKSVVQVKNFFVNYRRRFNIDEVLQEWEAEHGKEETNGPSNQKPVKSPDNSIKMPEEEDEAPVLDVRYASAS

No constants are given. Whether binding was seen depends on the method and setting. Some binding calls cover weakened binding; strength is not graded here.

The target of assay [1] is embryonic ectoderm development protein (human (endogenous in lung fibroblasts of IPF patients)) (UniProt O75530). As to the kind of experiment: Re-ChIP (sequential chromatin immunoprecipitation); Re-ChIP-IT Express Kit; formaldehyde cross-linked, sonicated chromatin of confluent, 24 h serum-starved unstimulated F-IPFs; first immunoprecipitation with an antibody to one protein, eluted and desalted chromatin precipitated again with an antibody to the second; read-out: real-time PCR of COX-2 promoter DNA (-299/+6), normalized to input. (Real-time PCR tracks product formation cycle by cycle.)

For assay [2], the target named is methyl CpG binding protein 2 (human (endogenous in lung fibroblasts of IPF patients)) (UniProt P51608). Described as above.

Consider “nuclear receptor corepressor (from UniProt O75376 1-2440)”, for which the binding result in assay [1] is given as “binds”.

Consider “G9a (from UniProt Q96KQ7 1-1210) (enzyme)”, for which the binding result in assay [2] was “binds”. For the substance “co-RE1-silencing transcription factor (from UniProt Q9UKL0 1-485)”, the binding entry in assay [2] and in assay [1] was “binds” throughout.
